Laboratory results taken from the supplement of paper PMC10849652.
Some of the results follow.

The chains behind the UniProt entries cited, without tags or fusion partners. Where a name states a change or a piece, a line headed by the entry shows the natural chain unless it says otherwise.
UniProt Q8IZQ5, whole entry, looked up: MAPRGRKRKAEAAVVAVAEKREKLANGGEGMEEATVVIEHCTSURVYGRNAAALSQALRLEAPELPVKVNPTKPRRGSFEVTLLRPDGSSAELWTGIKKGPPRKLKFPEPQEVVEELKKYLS
UniProt Q9C0C4, whole entry, looked up: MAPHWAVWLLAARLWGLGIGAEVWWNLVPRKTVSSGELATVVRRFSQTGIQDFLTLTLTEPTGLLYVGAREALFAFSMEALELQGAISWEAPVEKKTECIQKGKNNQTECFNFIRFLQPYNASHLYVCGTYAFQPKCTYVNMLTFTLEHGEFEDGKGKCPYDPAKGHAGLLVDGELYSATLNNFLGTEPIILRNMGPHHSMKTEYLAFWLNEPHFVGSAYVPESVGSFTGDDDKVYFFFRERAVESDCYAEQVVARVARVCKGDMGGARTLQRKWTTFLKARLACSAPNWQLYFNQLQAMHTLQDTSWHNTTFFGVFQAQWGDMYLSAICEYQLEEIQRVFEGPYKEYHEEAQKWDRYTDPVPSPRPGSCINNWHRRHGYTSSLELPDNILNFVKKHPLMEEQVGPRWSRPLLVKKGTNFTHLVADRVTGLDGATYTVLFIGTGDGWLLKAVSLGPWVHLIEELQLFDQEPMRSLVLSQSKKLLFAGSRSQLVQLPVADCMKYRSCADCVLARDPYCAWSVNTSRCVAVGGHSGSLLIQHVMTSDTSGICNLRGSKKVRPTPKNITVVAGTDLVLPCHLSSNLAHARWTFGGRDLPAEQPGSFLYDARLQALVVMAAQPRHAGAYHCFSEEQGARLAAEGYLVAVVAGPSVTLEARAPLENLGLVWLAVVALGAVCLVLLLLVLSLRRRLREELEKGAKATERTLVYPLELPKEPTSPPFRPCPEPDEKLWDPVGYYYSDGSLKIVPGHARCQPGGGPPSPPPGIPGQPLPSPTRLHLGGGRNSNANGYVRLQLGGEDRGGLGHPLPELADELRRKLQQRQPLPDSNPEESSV
UniProt Q96FV2: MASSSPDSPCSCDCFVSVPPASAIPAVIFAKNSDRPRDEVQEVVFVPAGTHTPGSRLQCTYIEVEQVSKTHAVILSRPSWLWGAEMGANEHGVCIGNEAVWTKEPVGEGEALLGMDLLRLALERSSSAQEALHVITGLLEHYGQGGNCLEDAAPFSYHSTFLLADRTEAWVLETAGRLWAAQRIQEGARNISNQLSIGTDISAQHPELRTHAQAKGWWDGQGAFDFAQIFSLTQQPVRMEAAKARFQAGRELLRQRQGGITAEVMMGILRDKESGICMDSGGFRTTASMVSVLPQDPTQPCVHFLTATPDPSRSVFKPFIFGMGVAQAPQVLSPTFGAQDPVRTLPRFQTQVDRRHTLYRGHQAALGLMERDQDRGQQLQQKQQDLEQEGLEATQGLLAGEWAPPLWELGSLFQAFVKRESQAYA
UniProt Q96ER3: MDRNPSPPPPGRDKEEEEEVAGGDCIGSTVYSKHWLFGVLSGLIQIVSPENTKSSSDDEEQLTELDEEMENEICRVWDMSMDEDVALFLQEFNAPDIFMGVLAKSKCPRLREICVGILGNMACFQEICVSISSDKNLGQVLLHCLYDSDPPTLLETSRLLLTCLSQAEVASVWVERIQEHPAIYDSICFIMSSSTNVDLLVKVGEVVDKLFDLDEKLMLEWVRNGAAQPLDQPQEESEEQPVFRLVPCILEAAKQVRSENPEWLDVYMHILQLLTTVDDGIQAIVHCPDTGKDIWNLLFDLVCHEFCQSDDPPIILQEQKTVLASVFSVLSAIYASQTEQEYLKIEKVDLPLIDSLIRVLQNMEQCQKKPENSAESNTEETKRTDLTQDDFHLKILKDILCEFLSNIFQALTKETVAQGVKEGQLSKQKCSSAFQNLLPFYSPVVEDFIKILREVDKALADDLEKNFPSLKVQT
UniProt Q9Y512: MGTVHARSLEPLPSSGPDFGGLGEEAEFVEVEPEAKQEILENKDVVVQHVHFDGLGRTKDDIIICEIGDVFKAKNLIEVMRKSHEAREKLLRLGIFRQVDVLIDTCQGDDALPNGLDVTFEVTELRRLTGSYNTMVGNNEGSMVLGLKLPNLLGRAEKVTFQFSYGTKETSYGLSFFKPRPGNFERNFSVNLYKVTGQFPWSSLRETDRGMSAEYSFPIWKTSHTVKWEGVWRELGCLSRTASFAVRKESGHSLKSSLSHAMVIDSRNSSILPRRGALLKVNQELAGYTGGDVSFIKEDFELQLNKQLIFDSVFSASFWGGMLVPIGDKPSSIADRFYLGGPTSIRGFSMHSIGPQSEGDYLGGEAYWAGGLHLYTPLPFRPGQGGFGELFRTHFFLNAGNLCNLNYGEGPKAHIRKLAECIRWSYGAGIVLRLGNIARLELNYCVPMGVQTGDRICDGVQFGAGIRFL
UniProt Q9Y3Z3: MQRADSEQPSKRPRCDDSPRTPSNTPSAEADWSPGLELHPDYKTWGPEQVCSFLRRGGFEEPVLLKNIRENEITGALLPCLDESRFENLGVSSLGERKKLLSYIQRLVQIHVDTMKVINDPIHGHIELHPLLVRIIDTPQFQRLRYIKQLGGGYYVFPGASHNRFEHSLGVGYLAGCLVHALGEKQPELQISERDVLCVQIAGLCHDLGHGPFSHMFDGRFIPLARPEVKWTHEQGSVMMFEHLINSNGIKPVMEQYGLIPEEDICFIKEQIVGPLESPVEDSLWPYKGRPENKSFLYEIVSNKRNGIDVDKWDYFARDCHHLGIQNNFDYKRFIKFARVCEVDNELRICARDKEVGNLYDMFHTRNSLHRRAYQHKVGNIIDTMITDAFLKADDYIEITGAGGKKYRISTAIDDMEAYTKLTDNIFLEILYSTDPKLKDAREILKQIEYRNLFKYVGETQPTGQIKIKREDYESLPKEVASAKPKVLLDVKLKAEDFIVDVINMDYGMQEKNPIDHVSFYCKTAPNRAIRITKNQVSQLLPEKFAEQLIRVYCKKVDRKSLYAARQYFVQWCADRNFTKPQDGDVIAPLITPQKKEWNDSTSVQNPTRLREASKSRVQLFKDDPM
UniProt P61619, whole entry, looked up: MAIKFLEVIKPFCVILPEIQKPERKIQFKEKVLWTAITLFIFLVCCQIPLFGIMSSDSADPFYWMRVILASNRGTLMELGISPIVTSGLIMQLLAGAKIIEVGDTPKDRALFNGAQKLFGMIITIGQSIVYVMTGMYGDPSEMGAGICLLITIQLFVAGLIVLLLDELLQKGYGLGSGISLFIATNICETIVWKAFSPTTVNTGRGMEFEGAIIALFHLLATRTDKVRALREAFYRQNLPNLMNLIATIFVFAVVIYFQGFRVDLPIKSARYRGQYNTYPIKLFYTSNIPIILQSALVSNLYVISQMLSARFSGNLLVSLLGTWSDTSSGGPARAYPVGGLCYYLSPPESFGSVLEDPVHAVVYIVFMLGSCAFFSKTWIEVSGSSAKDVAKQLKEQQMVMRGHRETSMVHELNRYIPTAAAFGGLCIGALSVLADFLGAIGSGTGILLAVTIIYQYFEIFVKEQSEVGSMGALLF
UniProt P49903: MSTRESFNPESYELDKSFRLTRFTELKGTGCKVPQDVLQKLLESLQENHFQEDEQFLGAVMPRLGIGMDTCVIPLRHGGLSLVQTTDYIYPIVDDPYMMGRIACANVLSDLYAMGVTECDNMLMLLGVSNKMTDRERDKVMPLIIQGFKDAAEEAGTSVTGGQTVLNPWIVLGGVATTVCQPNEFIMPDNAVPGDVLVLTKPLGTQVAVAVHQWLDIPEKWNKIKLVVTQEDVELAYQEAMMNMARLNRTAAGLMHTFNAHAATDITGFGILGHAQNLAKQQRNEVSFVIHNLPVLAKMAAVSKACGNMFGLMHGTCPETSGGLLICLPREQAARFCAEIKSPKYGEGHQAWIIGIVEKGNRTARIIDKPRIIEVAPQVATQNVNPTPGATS
UniProt Q9UBV2: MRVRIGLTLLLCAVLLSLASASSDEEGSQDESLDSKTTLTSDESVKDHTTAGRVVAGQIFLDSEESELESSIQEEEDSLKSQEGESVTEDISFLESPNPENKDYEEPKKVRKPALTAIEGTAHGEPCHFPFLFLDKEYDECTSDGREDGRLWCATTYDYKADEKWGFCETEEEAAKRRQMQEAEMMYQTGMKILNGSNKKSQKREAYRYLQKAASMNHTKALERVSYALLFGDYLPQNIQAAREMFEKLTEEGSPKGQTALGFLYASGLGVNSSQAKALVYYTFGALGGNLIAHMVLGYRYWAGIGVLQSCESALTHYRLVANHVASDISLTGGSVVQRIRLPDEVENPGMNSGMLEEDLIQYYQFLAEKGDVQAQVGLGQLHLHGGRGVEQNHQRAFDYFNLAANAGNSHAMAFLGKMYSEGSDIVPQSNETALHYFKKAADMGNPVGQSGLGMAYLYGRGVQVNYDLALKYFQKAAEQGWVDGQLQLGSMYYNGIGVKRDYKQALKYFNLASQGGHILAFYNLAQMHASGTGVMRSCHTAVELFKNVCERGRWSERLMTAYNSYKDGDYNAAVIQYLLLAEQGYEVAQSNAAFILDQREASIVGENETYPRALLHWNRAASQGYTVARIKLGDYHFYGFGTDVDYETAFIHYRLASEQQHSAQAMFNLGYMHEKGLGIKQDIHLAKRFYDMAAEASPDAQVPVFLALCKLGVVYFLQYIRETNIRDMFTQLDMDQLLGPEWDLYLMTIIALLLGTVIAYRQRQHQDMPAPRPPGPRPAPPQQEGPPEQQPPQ
UniProt O95486: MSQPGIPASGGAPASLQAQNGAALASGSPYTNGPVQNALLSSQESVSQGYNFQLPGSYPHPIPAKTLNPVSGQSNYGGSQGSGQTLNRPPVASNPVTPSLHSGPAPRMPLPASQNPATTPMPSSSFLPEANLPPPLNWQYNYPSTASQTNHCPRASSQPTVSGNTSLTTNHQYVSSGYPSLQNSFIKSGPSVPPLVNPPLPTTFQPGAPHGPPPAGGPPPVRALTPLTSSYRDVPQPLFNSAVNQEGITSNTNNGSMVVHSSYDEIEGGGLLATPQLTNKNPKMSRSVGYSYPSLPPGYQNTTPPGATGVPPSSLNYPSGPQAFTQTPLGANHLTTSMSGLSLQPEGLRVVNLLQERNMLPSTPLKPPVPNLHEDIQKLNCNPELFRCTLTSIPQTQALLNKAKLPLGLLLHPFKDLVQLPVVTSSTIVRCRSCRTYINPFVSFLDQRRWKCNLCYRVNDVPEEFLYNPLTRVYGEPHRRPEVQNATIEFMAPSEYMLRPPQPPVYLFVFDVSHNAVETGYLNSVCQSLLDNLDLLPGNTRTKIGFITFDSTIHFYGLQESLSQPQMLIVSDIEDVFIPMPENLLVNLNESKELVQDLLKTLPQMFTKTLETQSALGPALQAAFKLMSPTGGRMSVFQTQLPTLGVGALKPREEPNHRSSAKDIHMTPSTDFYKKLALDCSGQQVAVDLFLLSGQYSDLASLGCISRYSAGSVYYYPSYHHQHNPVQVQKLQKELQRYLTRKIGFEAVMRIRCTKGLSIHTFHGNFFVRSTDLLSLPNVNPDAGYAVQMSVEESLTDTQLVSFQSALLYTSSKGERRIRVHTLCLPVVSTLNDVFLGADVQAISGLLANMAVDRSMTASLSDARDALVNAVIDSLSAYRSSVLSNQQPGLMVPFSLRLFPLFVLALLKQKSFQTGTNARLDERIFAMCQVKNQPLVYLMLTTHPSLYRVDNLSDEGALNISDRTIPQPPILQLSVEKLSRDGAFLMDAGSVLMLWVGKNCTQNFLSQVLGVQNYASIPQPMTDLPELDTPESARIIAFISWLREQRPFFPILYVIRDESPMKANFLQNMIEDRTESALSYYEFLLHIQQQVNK
UniProt P60468, whole entry, looked up: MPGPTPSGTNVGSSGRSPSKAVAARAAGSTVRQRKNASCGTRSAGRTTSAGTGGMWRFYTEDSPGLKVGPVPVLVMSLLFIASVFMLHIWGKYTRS
UniProt O60613, whole entry, looked up: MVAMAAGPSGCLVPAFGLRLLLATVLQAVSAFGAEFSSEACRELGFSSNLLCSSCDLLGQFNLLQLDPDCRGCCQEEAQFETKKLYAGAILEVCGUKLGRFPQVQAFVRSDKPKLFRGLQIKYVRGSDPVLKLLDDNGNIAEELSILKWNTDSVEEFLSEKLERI
UniProt Q9Y3A5: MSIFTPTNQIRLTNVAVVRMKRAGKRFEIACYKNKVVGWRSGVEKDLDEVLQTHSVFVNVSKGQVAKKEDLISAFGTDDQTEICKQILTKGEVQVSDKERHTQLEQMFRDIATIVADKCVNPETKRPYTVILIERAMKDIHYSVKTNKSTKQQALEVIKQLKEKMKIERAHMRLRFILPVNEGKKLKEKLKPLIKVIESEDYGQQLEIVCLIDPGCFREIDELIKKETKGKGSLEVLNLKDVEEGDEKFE

Assays:
Experiment in all cases: log2 fold change, soluble protein after heating vs DMSO (PISA); higher = thermal stabilisation; K562 lysate, 10 uM; active = over 0.2 and 3.5 SD of the protein, either way, in both replicates (recomputed)
vemurafenib = compound: CCCS(=O)(=O)Nc1ccc(F)c(C(=O)c2c[nH]c3ncc(-c4ccc(Cl)cc4)cc23)c1F [vemurafenib]
Outline: (§1)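 A 30 min treatment with 10 μM compound was applied to crude K562 extract at 1 mg/mL protein in PBS pH 7.4 with 1 mM MgCl2. Heating for 3 min spanned 48°C-58°C, after which aliquots were pooled, adjusted to 0.5% NP-40 at 4°C and spun at 21,000xg for 90 min. TMTpro 16plex LC-MS/MS of the supernatant, with channel sums equalised, gave values recorded as log-two fold change in thermal stability against solvent controls, from duplicates.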

[1] = compound: CCCS(=O)(=O)Nc1ccc(F)c(C(=O)c2c[nH]c3ncc(Cl)cc23)c1F
Outline: as §1

barasertib = compound: CCN(CCCOc1ccc2c(Nc3cc(CC(=O)Nc4cccc(F)c4)[nH]n3)ncnc2c1)CCOP(=O)(O)O [barasertib]
Outline: as §1

[2] = compound: CC[C@@H]1C(=O)N(C)c2cnc(Nc3ccc(C(=O)NC4CCN(C)CC4)cc3OC)nc2N1C1CCCC1
Outline: as §1

volasertib = compound: CC[C@@H]1C(=O)N(C)c2cnc(Nc3ccc(C(=O)N[C@H]4CC[C@H](N5CCN(CC6CC6)CC5)CC4)cc3OC)nc2N1C(C)C [volasertib]
Outline: as §1

[3] = compound: CCn1c(C(=O)N(C2CC2)C2CC2)cc2c3c(ncn3C)c(Nc3cc(C)n(C)n3)nc21
Outline: as §1

[4] = compound: CCn1cc(-c2ccnc3[nH]c(-c4cccc(CN(C)C)c4)cc23)c(-c2ccc(NC(=O)N(C)C)cc2)n1
Outline: as §1

[5] = compound: CN1CCC(CNc2ccc3ncc(-c4cccc(OC(F)(F)F)c4)n3n2)CC1
Outline: as §1

saracatinib = compound: CN1CCN(CCOc2cc(OC3CCOCC3)c3c(Nc4c(Cl)ccc5c4OCO5)ncnc3c2)CC1 [saracatinib]
Outline: as §1

sotrastaurin = compound: CN1CCN(c2nc(C3=C(c4c[nH]c5ccccc45)C(=O)NC3=O)c3ccccc3n2)CC1 [sotrastaurin]
Outline: as §1

alvocidib = compound: CN1CC[C@H](c2c(O)cc(O)c3c(=O)cc(-c4ccccc4Cl)oc23)[C@H](O)C1 [alvocidib]
Outline: as §1

Tubastatin A = compound: CN1CCc2c(c3ccccc3n2Cc2ccc(C(=O)NO)cc2)C1 [Tubastatin A]
Outline: as §1

[6] = compound: CNC(=O)C1=CC=CC=C1NC2=NC(=NC=C2Cl)NC3=C(C=C(C=C3)N4CCOCC4)OC
Outline: as §1

defactinib = compound: CNC(=O)c1ccc(Nc2ncc(C(F)(F)F)c(NCc3nccnc3N(C)S(C)(=O)=O)n2)cc1 [defactinib]
Outline: as §1

[7] = compound: CNc1nc(-c2ccc3c(N)n[nH]c3c2)cc(N2C[C@@H](C(=O)NC3CCCCC3)CC[C@H]2C)n1
Outline: as §1

encorafenib = compound: COC(=O)N[C@@H](C)CNc1nccc(-c2cn(C(C)C)nc2-c2cc(Cl)cc(NS(C)(=O)=O)c2F)n1 [encorafenib]
Outline: as §1

[8] = compound: COC(=O)[C@H](CCSC)NC(=O)C1=C(C=C(C=C1)NC[C@H](CS)N)C2=CC=CC=C2
Outline: as §1

alisertib = compound: COc1cc(Nc2ncc3c(n2)-c2ccc(Cl)cc2C(c2c(F)cccc2OC)=NC3)ccc1C(=O)O [alisertib]
Outline: as §1

[9] = compound: COc1cc2nc(-c3cc(F)ccc3O)nc(N[C@@H]3CNC[C@H]3C(C)(C)O)c2cc1OC
Outline: as §1

gefitinib = compound: COc1cc2ncnc(Nc3ccc(F)c(Cl)c3)c2cc1OCCCN1CCOCC1 [gefitinib]
Outline: as §1

Measured: log2 fold change

SEC24D isoform 2 (UniProt O94855)
inactive: vemurafenib -0.039 | [1] 0.027 | barasertib -0.002 | [2] -0.032 | volasertib -0.032 | [3] -0.011 | [4] -0.001 | [5] -0.009 | saracatinib 0.005 | sotrastaurin -0.025 | alvocidib -0.012 | Tubastatin A -0.018 | [6] 0.002 | defactinib 0.012 | [7] -0.008 | encorafenib 0.029 | [8] -0.163 | alisertib 0.005 | [9] 0.006 | gefitinib 0.006

SELENOH (UniProt Q8IZQ5)
inactive: vemurafenib -0.012 | [1] -0.008 | barasertib -0.043 | [2] 0.026 | volasertib 0.008 | [3] 0.009 | [4] 0.158 | [5] -0.142 | saracatinib -0.067 | sotrastaurin 0.009 | alvocidib 0.005 | Tubastatin A 0.048 | [6] 0.005 | defactinib -0.024 | [7] 0.02 | encorafenib 0.009 | [8] 0.013 | alisertib -0.014 | [9] -0.023 | gefitinib 0.032

SEMA4C (UniProt Q9C0C4)
inactive: vemurafenib -0.036 | [1] -0.005 | barasertib 0.004 | [2] 0.01 | volasertib 0 | [3] 0.045 | [4] -0.005 | [5] 0.011 | saracatinib 0.03 | sotrastaurin -0.004 | alvocidib 0.015 | Tubastatin A 0.067 | [6] 0.01 | defactinib -0.018 | [7] 0.011 | encorafenib 0.026 | [8] -0.048 | alisertib 0.018 | [9] 0.002 | gefitinib 0.007

SCRN2 (UniProt Q96FV2)
inactive: vemurafenib 0.101 | [1] -0.032 | barasertib -0.007 | [2] 0.038 | volasertib 0.001 | [3] -0.019 | [4] -0.172 | [5] 0.014 | saracatinib 0.08 | sotrastaurin 0.052 | alvocidib 0.044 | Tubastatin A 0.105 | [6] -0.098 | defactinib 0.15 | [7] -0.141 | encorafenib -0.038 | [8] 0.011 | alisertib 0.1 | [9] 0.019 | gefitinib 0.095

SAAL1 (UniProt Q96ER3)
inactive: vemurafenib -0.018 | [1] 0.028 | barasertib -0.037 | [2] -0.037 | volasertib -0.032 | [3] 0.079 | [4] 0.061 | [5] -0.143 | saracatinib -0.042 | sotrastaurin 0.001 | alvocidib 0 | Tubastatin A -0.071 | [6] 0.011 | defactinib -0.016 | [7] -0.062 | encorafenib 0.016 | [8] 0.029 | alisertib -0.006 | [9] -0.039 | gefitinib 0.009

SAMM50 (UniProt Q9Y512)
inactive: vemurafenib 0.024 | [1] 0.003 | barasertib 0.012 | [2] 0.025 | volasertib 0.031 | [3] -0.002 | [4] 0.076 | [5] -0.041 | saracatinib -0.007 | sotrastaurin -0.008 | alvocidib 0.004 | Tubastatin A -0.021 | [6] 0.015 | defactinib -0.015 | [7] -0.011 | encorafenib 0.016 | [8] -0.066 | alisertib 0.007 | [9] -0.05 | gefitinib 0.007

SAMHD1 (UniProt Q9Y3Z3)
inactive: vemurafenib 0.034 | [1] 0.045 | barasertib 0.007 | [2] -0.032 | volasertib -0.037 | [3] 0.068 | [4] -0.096 | [5] 0.079 | saracatinib -0.052 | sotrastaurin 0.032 | alvocidib -0.019 | Tubastatin A -0.072 | [6] 0.041 | defactinib -0.021 | [7] -0.015 | encorafenib 0 | [8] 0.099 | alisertib -0.013 | [9] 0.02 | gefitinib 0.044

SEC61A1 (UniProt P61619)
inactive: vemurafenib 0.069 | [1] 0.003 | barasertib -0.051 | [2] 0.071 | volasertib 0.058 | [3] -0.054 | [4] -0.025 | [5] 0.073 | saracatinib -0.008 | sotrastaurin -0.053 | alvocidib -0.051 | Tubastatin A -0.016 | [6] 0.01 | defactinib 0.024 | [7] 0.077 | encorafenib -0.045 | [8] 0.027 | alisertib 0.01 | [9] 0.026 | gefitinib 0.041

SEPHS1 (UniProt P49903)
inactive: vemurafenib 0.031 | [1] -0.003 | barasertib 0.075 | [2] 0.024 | volasertib -0.002 | [3] -0.012 | [4] 0.044 | [5] 0.029 | saracatinib -0.004 | sotrastaurin -0.045 | alvocidib 0.004 | Tubastatin A 0.026 | [6] 0.007 | defactinib -0.007 | [7] 0.05 | encorafenib -0.008 | [8] -0.004 | alisertib -0.011 | [9] -0.006 | gefitinib -0.015

SEL1L (UniProt Q9UBV2)
inactive: vemurafenib 0.004 | [1] 0.021 | barasertib 0.028 | [2] 0.057 | volasertib 0.006 | [3] -0.037 | [4] 0.047 | [5] 0.017 | saracatinib -0.007 | sotrastaurin 0.001 | alvocidib -0.007 | Tubastatin A 0.025 | [6] -0.021 | defactinib 0.012 | [7] 0.013 | encorafenib 0.025 | [8] -0.023 | alisertib 0.006 | [9] -0.013 | gefitinib 0.039

SCP2 (UniProt P22307)
inactive: vemurafenib -0.01 | [1] -0.002 | barasertib 0.012 | [2] 0.047 | volasertib 0.033 | [3] -0.015 | [4] 0.136 | [5] -0.034 | saracatinib -0.01 | sotrastaurin -0.018 | alvocidib 0.035 | Tubastatin A 0.039 | [6] 0.002 | defactinib 0.019 | [7] 0.033 | encorafenib 0.001 | [8] -0.083 | alisertib -0.006 | [9] 0.008 | gefitinib -0.004

Fetched one by one from the list above (2):
SEL1L (UniProt Q9UBV2)
inactive: vemurafenib 0.004 | [1] 0.021 | barasertib 0.028 | [2] 0.057 | volasertib 0.006 | [3] -0.037 | [4] 0.047 | [5] 0.017 | saracatinib -0.007 | sotrastaurin 0.001 | alvocidib -0.007 | Tubastatin A 0.025 | [6] -0.021 | defactinib 0.012 | [7] 0.013 | encorafenib 0.025 | [8] -0.023 | alisertib 0.006 | [9] -0.013 | gefitinib 0.039

SAMM50 (UniProt Q9Y512)
inactive: vemurafenib 0.024 | [1] 0.003 | barasertib 0.012 | [2] 0.025 | volasertib 0.031 | [3] -0.002 | [4] 0.076 | [5] -0.041 | saracatinib -0.007 | sotrastaurin -0.008 | alvocidib 0.004 | Tubastatin A -0.021 | [6] 0.015 | defactinib -0.015 | [7] -0.011 | encorafenib 0.016 | [8] -0.066 | alisertib 0.007 | [9] -0.05 | gefitinib 0.007

More records follow.

SEC24A (UniProt O95486)
inactive: vemurafenib 0.035 | [1] 0.01 | barasertib 0.031 | [2] -0.011 | volasertib -0.047 | [3] -0.003 | [4] 0.027 | [5] -0.023 | saracatinib 0.004 | sotrastaurin -0.002 | alvocidib 0.009 | Tubastatin A 0.007 | [6] -0.007 | defactinib 0.023 | [7] -0.018 | encorafenib -0.008 | [8] 0.022 | alisertib 0.091 | [9] -0.009 | gefitinib 0.023

SEC61B (UniProt P60468)
inactive: vemurafenib -0.015 | [1] -0.029 | barasertib -0.022 | [2] -0.045 | volasertib 0.03 | [3] 0.025 | [4] -0.038 | [5] 0.027 | saracatinib 0.027 | sotrastaurin 0.043 | alvocidib -0.059 | Tubastatin A 0.025 | [6] -0.033 | defactinib -0.009 | [7] -0.112 | encorafenib 0.031 | [8] -0.063 | alisertib -0.007 | [9] 0.001 | gefitinib 0.076

SELENOF (UniProt O60613)
inactive: vemurafenib -0.058 | [1] -0.026 | barasertib 0.029 | [2] -0.055 | volasertib 0.019 | [3] -0.04 | [4] -0.092 | [5] -0.027 | saracatinib -0.007 | sotrastaurin -0.005 | alvocidib 0.041 | Tubastatin A 0.062 | [6] -0.011 | defactinib 0.066 | [7] 0.059 | encorafenib -0.089 | [8] 0.051 | alisertib -0.014 | [9] 0.027 | gefitinib -0.039

SBDS (UniProt Q9Y3A5)
inactive: vemurafenib -0.027 | [1] 0.002 | barasertib -0.023 | [2] 0.019 | volasertib 0.005 | [3] -0.036 | [4] -0.077 | [5] -0.005 | saracatinib -0.018 | sotrastaurin -0.005 | alvocidib -0.018 | Tubastatin A 0.046 | [6] -0.006 | defactinib 0.038 | [7] 0.032 | encorafenib -0.038 | [8] 0.01 | alisertib -0.001 | [9] -0.014 | gefitinib -0.01

SEMA7A (UniProt O75326)
inactive: vemurafenib 0.001 | [1] -0.082 | barasertib -0.011 | [2] 0.033 | volasertib -0.037 | [3] -0.044 | [4] 0.05 | [5] -0.084 | saracatinib 0.182 | sotrastaurin 0.01 | alvocidib -0.001 | Tubastatin A 0.168 | [6] 0.039 | defactinib 0.026 | [7] 0.03 | encorafenib 0.078 | [8] -0.041 | alisertib 0.238 | [9] 0.008 | gefitinib -0.04
